Literature values in patent publication US5843713A, “Peptide sequence that forms mucin sugar chain and technique for modifying protein to be linked with mucin sugar chain” (Kirin Beer Kabushiki Kaisha, priority 1994, dated 1998).

Test system: insect cell
Conditions: sequence inserted between the 80th and 81st amino acids of IL-2; literature

Substance | introduction of mucin type sugar chain
GGKAPTPPPKGG: literature sequence inserted into IL-2, serine residues changed with proline | succeeded in introducing a sugar chain
GGKAPTSSSTKGG: literature sequence inserted between the 80th and 81st amino acids of IL-2 | failed
